Values quoted from earlier work as cited in patent publication US20150126603A1, “TREATMENT OF POULTRY, PIGS OR FISH FOR REDUCING THE FEED CONVERSION RATIO OR INCREASING THEIR BODYWEIGHT GAIN” (TAMINCO, priority 2012, published 2015).

Tested on: broiler chickens
Conditions: 0.5, 1 and 2% of β-alanine in feed for 4 weeks; cited from earlier work

NCCC(=O)O [Beta-alanine, β-alanine]
carnosine and anserine concentrations in the breast muscles: not influenced | taurine concentration: significantly decreased | β-alanine concentration: significantly increased
